Results are given in words; binding and its absence hold for the method and conditions named.
Experiments:
[1] = target: bovine serum albumin (BSA) (bovine) (UniProt P02769); assay: condition: 10 μg of nuclease-treated cytoplasmic extracts; ELISA; 1 μg of purified recombinant PSaV VPg or BSA coated on plates, incubated 2 h at 4°C with 10 μg of nuclease-treated cytoplasmic extract in 2% BSA in TBS with 0.05% Tween 20; detected with antibodies to eIF4E, eIF4A or eIF4G; only the target purified
[2] = target: bovine serum albumin (BSA) (bovine) (UniProt P02769); assay: pull-down; 1 μg of His-tagged VPg immobilised on HisPur cobalt resin, or resin alone; blocked with BSA; incubated 4 h at 4°C with recombinant eIF4E or BSA; immunoblot with anti-eIF4E; both purified
[3] = target: bovine serum albumin (BSA) (bovine) (UniProt P02769); assay: ELISA; 1 μg of purified recombinant PSaV VPg or BSA coated on plates, incubated 2 h at 4°C with increasing concentrations of recombinant eIF4E in 2% BSA in TBS with 0.05% Tween 20; detected with anti-eIF4E; both purified

By UniProt entry, the sequences of proteins in these tests, tags left out. Residues count along the entry.
UniProt P02769, residues 25-607: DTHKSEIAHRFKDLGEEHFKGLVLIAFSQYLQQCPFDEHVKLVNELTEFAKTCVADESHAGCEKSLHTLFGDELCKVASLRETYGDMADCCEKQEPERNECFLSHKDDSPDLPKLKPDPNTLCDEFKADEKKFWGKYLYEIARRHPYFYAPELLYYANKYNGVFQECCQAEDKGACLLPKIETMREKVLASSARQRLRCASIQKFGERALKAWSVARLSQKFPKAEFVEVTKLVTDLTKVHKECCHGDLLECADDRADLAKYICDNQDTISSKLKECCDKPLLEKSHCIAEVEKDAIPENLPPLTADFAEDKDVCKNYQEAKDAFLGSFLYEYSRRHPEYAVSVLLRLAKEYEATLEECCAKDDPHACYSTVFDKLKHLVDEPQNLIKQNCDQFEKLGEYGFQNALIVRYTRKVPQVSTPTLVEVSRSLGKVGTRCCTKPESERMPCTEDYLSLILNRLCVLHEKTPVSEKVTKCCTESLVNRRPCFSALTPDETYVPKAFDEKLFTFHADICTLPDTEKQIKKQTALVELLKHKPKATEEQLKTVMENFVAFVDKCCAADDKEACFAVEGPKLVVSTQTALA
UniProt P06730: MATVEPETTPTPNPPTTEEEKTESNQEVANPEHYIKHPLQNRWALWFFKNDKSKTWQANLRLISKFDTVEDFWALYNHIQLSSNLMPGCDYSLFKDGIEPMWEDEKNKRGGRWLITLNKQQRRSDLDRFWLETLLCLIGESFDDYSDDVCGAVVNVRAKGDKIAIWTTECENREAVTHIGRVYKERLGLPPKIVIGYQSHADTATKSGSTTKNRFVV
UniProt Q04637: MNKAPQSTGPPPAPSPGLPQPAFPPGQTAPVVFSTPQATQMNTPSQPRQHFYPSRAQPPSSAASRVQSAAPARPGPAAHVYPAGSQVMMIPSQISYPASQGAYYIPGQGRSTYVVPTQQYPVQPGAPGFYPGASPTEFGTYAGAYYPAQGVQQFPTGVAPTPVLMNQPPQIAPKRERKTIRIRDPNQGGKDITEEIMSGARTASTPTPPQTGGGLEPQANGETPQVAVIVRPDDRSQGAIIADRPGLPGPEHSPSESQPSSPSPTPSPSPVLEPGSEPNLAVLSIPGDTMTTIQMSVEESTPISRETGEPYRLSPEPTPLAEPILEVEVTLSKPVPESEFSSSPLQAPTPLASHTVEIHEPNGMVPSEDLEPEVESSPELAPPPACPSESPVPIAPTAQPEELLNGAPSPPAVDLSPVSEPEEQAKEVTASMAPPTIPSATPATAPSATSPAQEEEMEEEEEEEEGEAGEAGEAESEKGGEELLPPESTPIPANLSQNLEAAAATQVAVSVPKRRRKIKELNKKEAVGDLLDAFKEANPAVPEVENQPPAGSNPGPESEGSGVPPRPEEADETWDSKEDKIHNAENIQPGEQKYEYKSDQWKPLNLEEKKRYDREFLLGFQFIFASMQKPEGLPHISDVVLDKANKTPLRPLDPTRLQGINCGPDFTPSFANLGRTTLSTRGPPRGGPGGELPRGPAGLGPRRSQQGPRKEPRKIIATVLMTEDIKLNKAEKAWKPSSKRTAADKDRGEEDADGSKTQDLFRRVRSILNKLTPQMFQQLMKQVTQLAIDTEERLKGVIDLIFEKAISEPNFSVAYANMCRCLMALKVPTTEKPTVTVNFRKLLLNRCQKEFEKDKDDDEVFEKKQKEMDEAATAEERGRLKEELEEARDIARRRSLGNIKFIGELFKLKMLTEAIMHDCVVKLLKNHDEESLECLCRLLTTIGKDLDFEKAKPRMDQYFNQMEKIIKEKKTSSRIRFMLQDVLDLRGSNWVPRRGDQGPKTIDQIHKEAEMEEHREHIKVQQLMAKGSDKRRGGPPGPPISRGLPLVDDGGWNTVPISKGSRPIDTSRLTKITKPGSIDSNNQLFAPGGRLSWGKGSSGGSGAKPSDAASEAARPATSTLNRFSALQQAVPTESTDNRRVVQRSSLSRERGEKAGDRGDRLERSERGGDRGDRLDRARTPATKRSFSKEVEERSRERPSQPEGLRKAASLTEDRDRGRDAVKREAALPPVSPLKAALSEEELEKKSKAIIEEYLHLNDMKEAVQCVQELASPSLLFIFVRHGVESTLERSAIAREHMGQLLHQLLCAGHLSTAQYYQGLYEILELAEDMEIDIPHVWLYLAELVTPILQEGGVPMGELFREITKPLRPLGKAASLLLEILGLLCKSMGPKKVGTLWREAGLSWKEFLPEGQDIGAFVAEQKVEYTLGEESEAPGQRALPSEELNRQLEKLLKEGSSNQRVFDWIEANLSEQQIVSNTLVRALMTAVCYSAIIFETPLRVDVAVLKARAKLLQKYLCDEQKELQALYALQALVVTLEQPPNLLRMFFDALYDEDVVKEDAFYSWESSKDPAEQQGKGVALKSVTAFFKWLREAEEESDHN

Row | binding [1] | binding [2] | binding [3] | Substance
1 | no binding | – | – | eIF4E, endogenous in the lysates of the capture ELISA (from UniProt P06730 1-217)
2 | no binding | – | – | eIF4G, endogenous in the lysates of the capture ELISA (from UniProt Q04637 1-1599)
3 | – | no binding | no binding | recombinant eIF4E (from UniProt P06730 1-217)
